Assay: physchem

Cc1cc(/C=C/c2ccc3cc(N(C)C)ccc3[n+]2C)c(C)n1-c1ccccc1 [Pyrvinium]
solubility (aqueous buffer, Solubility (mg/ml) Buffer B (aqueous)): < 1000 µg/mL
solubility (aqueous with cosolvent or surfactant or cyclodextrin, Solubility (mg/ml) Beta cyclodextrin): < 1000 µg/mL
solubility (aqueous with cosolvent or surfactant or cyclodextrin, Solubility (mg/ml) Gamma cyclodextrin): < 1000 µg/mL
solubility (organic solvent or mixture, Solubility (mg/ml) Acetonitrile): < 5000 µg/mL
solubility (organic solvent or mixture, Solubility (mg/ml) DMSO): ~10000 µg/mL
solubility (organic solvent or mixture, Solubility (mg/ml) Ethanol): < 1000 µg/mL

From patent US10428048B2, “Androgen receptor antagonists” (CITY OF HOPE, priority 2015, dated 2019)
